Experimental data published in publication PMC10163288.
Some of the results follow.

B1: il2ra_site1_1z92_sap_20_mot_HHH_b1_07660_af2_000000114_0001_40_57_H_._HHH_b1_06241_0001_0000100001_0000001_0_0001_af2pred_0001_af2pred_1 (protein)
chain: SEEEELEELLRELGVPPELIKAIKKDFRHAKENGFPPEKVLRAILAALERDGDPAAEVIEELLKK
B2: il2ra_site2_2erj_normal_mot_HHH_b2_08311_000000098_0001_42_56_H_._HHH_b1_05305_af2_0001_0000500054_0000001_0 (protein)
chain: SSSSSEEIERLYELLREADELLANGNPEEAKEVLEEAEELAQELQSEEAEKIVEWLLEALSSSSS
B3: il2ra_site2_2erj_sap_25_mot_HHH_b2_04755_af2_000000255_0001_22_38_H_._HHH_b2_04266_af2_0001_0000400007_0000001_0_0001 (protein)
chain: SSSSDVFEEFAEDVERLARQLEERGNPEEARAQVESALHYAKALNSEEAEEILRELLEELSSSSS
B4: il2ra_site1_1z92_sap_11_mot_HHH_b1_02970_000000195_0001_43_56_H_._09869709d06cb525cd55f400c7a8f8a0_0001_0001_0000300025_0000001_0_0001 (protein)
chain: SSSSDRHEEWLRRLVESVIRLLERSGDPAALELLEFLLRAARIAGDEELAREIERVLEEAGSSSS
B5: il2ra_site2_3nfp_sap_16_mot_HHH_b2_05976_000000001_0001_22_38_H_._HHH_b2_06191_af2_0001_0000600026_0000001_0_0001 (protein)
chain: SSSSDKAEEYLEAAIKLLEEAREAGDEEVAREHAEAAVLMAETHGNEELLEELRKILEELESSSS
B6: il2ra_site2_3nfp_sap_18_mot_HHH_b2_02944_000000124_0001_23_39_H_._d4ecb90dab11370dfe9ea0118649096c_0001_1_af2_0001_0000300022_0000001_0_0001 (protein)
chain: SSSSSDSEEYIRAALRLAEKAIEEGDPELAEKILRMVLKAAEDNGDPIREEIEKLLEELESSSSS
B7: il2ra_site1_1z92_sap_14_mot_HHH_b2_00305_000000015_0001_21_37_H_._HHH_b1_06628_af2_0001_0000200003_0000001_0_0001 (protein)
chain: SSSSDENKERLLRFLERNIRMAIENGNERALEWALRLLELLVKLHNDPEAERVLEELEELGSSSS
B8: il2ra_site2_3nfp_normal_mot_cdc2c7e6ec3782e52408388447766025_0001_000000024_0001_37_50_H_._HHH_b2_05893_0001_0000100003_0000001_0 (protein)
chain: SSSSSYEVAELAAEAVELFQEGNPEEAREVLEEALELARELGNEWAREYIEARLLLLERASSSSS
B9: il2ra_site1_1z92_normal_mot_01209686ea234b34325f918445e6eade_0001_af2_000000154_0001_18_33_H_._HHH_b2_04498_0001_0000100007_0000001_0_af2pred_0001_af2pred (protein)
chain: SSSSSDEEERIVEELIEELGGSEEEKEAAEYDAEAARKAGFSEENIKKALEAAIRRTLELSSSSS
B10: il2ra_site2_3nfp_sap_23_mot_2fddaf487ee4b636a798e6d487813806_0001_000000215_0001_37_52_H_._HHH_b1_04954_0001_0000400025_0000001_0_0001 (protein)
chain: SSSSEVEEYVKAAILLLRRAVEEGDEELVRRLAEVARQSAEDANNPELLEEVERLVKEFEESSSS
B11: il2ra_site2_2erj_sap_15_mot_HHH_b1_00449_000000059_0001_39_52_H_._HHH_b2_03041_af2_0001_0000100003_0000001_0_0001 (protein)
chain: SSSSSDEAEKLLEEAEELLEEGDTERVEELARRVYQLAYQNNDPELAAAAIELVHAVARRSSSSS
B12: il2ra_site2_3nfp_normal_mot_HHH_b1_00660_af2_000000090_0001_40_57_H_._HHH_b1_06964_0001_0000200008_0000001_0_af2pred_0001_af2pred (protein)
chain: SSSSSEEEEEVEELLRRAEELLKRGDPEQAKEVVDKAVLIAAQLNNFELFALINELLEKILSSSS
B13: il2ra_site1_1z92_sap_11_mot_HHH_b1_07881_000000176_0001_43_56_H_._HHH_b1_05185_0001_0000200007_0000001_0_0001 (protein)
chain: SSSDTREMARLAARIASKLAAEFGLSKEQILELLKLADELTLRGVSEEEVEQILRELAHELSSSS
B14: il2ra_site1_1z92_normal_mot_HHH_b1_00368_000000203_0001_23_39_H_._HHH_b2_06643_af2_0001_0000400027_0000001_0_af2pred_0001_af2pred (protein)
chain: SSSSSELEKNLRRVARLAAELAGLDEEEREELEEIAEELARRGVDFREAFKILDEVAEELGSSSS
B15: il2ra_site1_2b5i_sap_14_mot_HHH_b2_04131_000000150_0001_1_16_H_._HHH_b1_06166_0002_0000100005_0000001_0_0001_af2pred_dldesign_0_af2pred (protein)
chain: SSSSDEIHDEVERIYKKALEAFKAGKKEEAKKLLEEALRLAKEGNLPNAVADLERLLELLSSSSS
B16: il2ra_site1_1z92_sap_28_mot_64112f081ff6e37487a4373fed56e914_0001_1_000000006_0001_18_33_H_._10fb2a14c5b7c38646833f5309af78e7_0001_af2_0001_0000100002_0000001_0 … (protein)
chain: SSSDEEELEEFAEKVVRRLVEELGLSEEEEEILREAAELMIRRGYSEKNIKHALESLARRLSSSS
B17: il2ra_site2_3nfp_normal_mot_HHH_b1_00660_af2_000000090_0001_40_57_H_._HHH_b2_01268_0001_0000100006_0000001_0_af2pred_0001_1_af2pred_swapped (protein)
chain: SSSSSDEEEEEVEELLEEAKRIPDPEERERVLLRASTLAAEARDHELVALVLEVLEKLSSSSSSS
B18: il2ra_site2_3nfp_normal_mot_HHH_b1_00660_af2_000000090_0001_40_57_H_._HHH_b2_04195_0001_0000100015_0000001_0_af2pred_0001_af2pred (protein)
chain: SSSSSEEEEVRELLEQAKELLERGNPEEAEEILLRAAELAAKAQNFELFAIINLLLEKVDQSSSS

target: il2ra, P01589; test: yeast display titration

| Binder | apparent Kd |
| --- | --- |
| B1 | inactive: no binding seen |
| B2 | inactive: no binding seen |
| B3 | inactive: no binding seen |
| B4 | inactive: no binding seen |
| B5 | inactive: no binding seen |
| B6 | inactive: no binding seen |
| B7 | inactive: no binding seen |
| B8 | inactive: no binding seen |
| B9 | inactive: no binding seen |
| B10 | inactive: no binding seen |
| B11 | inactive: no binding seen |
| B12 | inactive: no binding seen |
| B13 | inactive: no binding seen |
| B14 | inactive: no binding seen |
| B15 | inactive: no binding seen |
| B16 | inactive: no binding seen |
| B17 | inactive: no binding seen |
| B18 | inactive: no binding seen |

Individual results from the results shown.
Under apparent Kd, B10 reads inactive: no binding seen
Under apparent Kd, B17 reads inactive: no binding seen
